# From PubChem BioAssay AID1487 (National Center for Advancing Translational Sciences (NCATS), 2009)
# Several values for one entry are separate records, joined by “and”; a condition that tells them apart may be missing. Equal values may be shown once. The list shows a part of the results. These are further read-outs of the screen, such as a control signal, another cell line or another target. No call is given for them. Compounds called inactive in the main read-out are mostly missing here. Words in brackets tell the shape of the fitted curve; partial curves, single points and poor fits give uncertain potencies.
# Assay: qHTS Assay for Modulators of Lamin A Splicing
# Settings: HeLa LMNA splicing GFP/RFP minigene ratio, 48 h
# How it was run: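 Read-out is the ratio of GFP to DsRed2 object intensity, acquired by 488 nm laser-scanning cytometry on HeLa lamin A-EGFP minigene reporter cells. Compound incubation 48 hrs at 37 °C in Opti-MEM with 2% FBS; DMSO 0.5% final.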
# [1] = measured here: GFP splicing reporter channel
# [2] = measured here: RFP viability control channel
Structure (SMILES),AC50 [1],AC50 [2]
COc1ccc(C2=NN(CC(=O)NCCc3ccccc3)C(=O)CC2)cc1,"0.00355 µM [falling, full curve, poor fit]","0.1 µM [falling, full curve, poor fit]"
O=C(NCc1cccnc1)c1c(O)c2cccc3c2n(c1=O)CCC3,,"0.126 µM [falling, full curve, poor fit]"
CCC(=O)c1cc2c(C)cc(=O)oc2c(C)c1OC(C)=O,"12.6 µM [rising, single point]","15.8 µM [rising, single point]"
COc1cc(NC(=O)c2ccco2)c(C(=O)OCC(=O)c2c[nH]c3ccccc23)cc1OC,,"35.5 µM [rising, single point]"
N#CC1=C(N)Oc2c(ccc3ccccc23)C1c1cccs1 (centres undefined),,"0.501 µM [rising, full curve]"
CCOc1ccc2nc(SCC(=O)c3cccs3)sc2c1,,"6.31 µM [rising, single point]"
COc1cc2ccc(=O)oc2c(O)c1OCC=C(C)C,"35.5 µM [falling, single point]","0.158 µM [rising, full curve]"
O=C(CN(C1CCCCC1)S(=O)(=O)c1ccc(Cl)cc1)NCc1ccncc1,"20 µM [rising, single point]",
O=C(NC1CCCC1)c1ccc(CSc2nc3cccnc3n2Cc2ccccc2)cc1,"0.398 µM [falling, partial curve]","0.0282 µM [falling, full curve, poor fit]"
CN(Cc1cccnc1)Cc1cn(C)nc1-c1cccc(Cl)c1,,"2.24 µM [falling, full curve, poor fit]"
Cc1ccc(NCC(=O)N/N=C\C(Br)=C\c2ccccc2)cc1,"22.4 µM [falling, single point]","25.1 µM [falling, single point]"
CC1CCC2C(C)(C)C3CC12CC[C@]3(C)O (some centres undefined),,"0.631 µM [falling, full curve]"
Cc1onc(-c2ccccc2Cl)c1C(=O)Oc1cc(N)n(S(=O)(=O)c2ccc(F)cc2)n1,"0.501 µM [falling, full curve]","0.708 µM [falling, full curve]"
COc1ccc(C(c2sc3ncnn3c2O)N2CC(C)OC(C)C2)cc1OC (centres undefined),"11.2 µM [falling, partial curve, poor fit]","8.91 µM [falling, partial curve]"
Cc1cccc(CNc2cc(-c3ccoc3)ncn2)c1,"10 µM [falling, partial curve]",
S=C(Nc1cccc(Cl)c1)NC1CC2CCCC(C1)N2C1CCCC1 (centres undefined),,"5.01 µM [rising, single point]"
Cc1c(Cl)c([N+](=O)[O-])nn1Cc1ccc(C(=O)Nc2ccc(Cl)cn2)o1,"35.5 µM [rising, single point]","35.5 µM [rising, single point]"
CC1CCc2nc(/C(C#N)=C/c3cccnc3)sc2C1 (centres undefined),,"10 µM [rising, single point]"
CCc1ccc(NC(=S)N(Cc2ccc(Cl)cc2)Cc2ccc(C(=O)O)cc2)cc1,"0.0355 µM [falling, full curve, poor fit]","4.47 µM [falling, partial curve, poor fit]"
CC(=O)Nc1cccc(C(=O)/C=C/c2cccs2)c1,,"11.2 µM [rising, partial curve]"
Nc1nc2nccc(-c3ccco3)n2n1,"11.2 µM [falling, partial curve, poor fit]",
CN(C)c1ccc(NC(=O)Nc2ccc3snnc3c2)cc1,,"12.6 µM [rising, single point]"
CCCOc1ccc2nc(NC(=O)OC)[nH]c2c1,,"4.47 µM [rising, full curve]"
O=C1/C(=C\c2cccs2)N=C(c2cccs2)N1Nc1ccccc1,,"15.8 µM [rising, single point]"
Cc1ccc(C)c(NC(=O)c2cc(=O)c3ccccc3o2)c1,"15.8 µM [rising, single point]",
CC(=O)Nc1nc(SCC(=O)Nc2nnc(C)s2)[nH]c(=O)c1NC(=O)c1cccs1,"31.6 µM [rising, partial curve, poor fit]",
CN1CCN(c2ncc3nc(-c4ccc(F)cc4)c(=O)n(Cc4cccs4)c3n2)CC1,"20 µM [falling, single point]","17.8 µM [falling, single point]"
CC(=O)c1ccc(NS(=O)(=O)c2ccc(CC(C)C)cc2)cc1,"8.91 µM [rising, partial curve, poor fit]","11.2 µM [rising, partial curve]"

# Among those listed so far, these contain a cyano group.
Structure (SMILES),AC50 [1],AC50 [2]
N#CC1=C(N)Oc2c(ccc3ccccc23)C1c1cccs1 (centres undefined),,"0.501 µM [rising, full curve]"
CC1CCc2nc(/C(C#N)=C/c3cccnc3)sc2C1 (centres undefined),,"10 µM [rising, single point]"

# Further compounds.

Structure (SMILES),AC50 [1],AC50 [2]
CC(=O)c1ccc(N2CCN(C(=S)Nc3cccc(Cl)c3)CC2)cc1,"8.91 µM [rising, partial curve]","11.2 µM [rising, partial curve]"
O=C(COC(=O)c1cncc(Br)c1)NC1CCCC1,,"5.62 µM [falling, full curve, poor fit]"
O=C(NCc1cccs1)c1cc(S(=O)(=O)N2CCCCC2)ccc1Cl,,"25.1 µM [rising, partial curve, poor fit]"
CC(C)n1c(C(=O)OCC(=O)NCc2ccc3c(c2)OCO3)cc2sccc21,"12.6 µM [rising, partial curve]","3.16 µM [rising, full curve]"
COc1ccccc1C(=O)N=C1NC(=O)CC2C(=O)NCCN12 (centres undefined),"0.631 µM [rising, partial curve]",
O=C(NCc1ccccc1)Nc1cccn(Cc2ccccc2F)c1=O,,"14.1 µM [rising, partial curve, poor fit]"
CN1/C(=C\C(=O)CN2C(=O)NC3(CCCCCC3)C2=O)C(C)(C)c2ccccc21,,"25.1 µM [rising, single point]"
Cc1ccc(Cl)cc1N1CCN(c2ncnc3c2nc2n3CCCCC2)CC1,"35.5 µM [falling, single point]","35.5 µM [falling, single point]"
CCOC(=O)C1=C(C)NC(C)=C(C(=O)OC)C1c1cccc([N+](=O)[O-])c1 (centres undefined),"0.000891 µM [falling, full curve, poor fit]","12.6 µM [rising, partial curve, poor fit] and 3.98 µM [falling, single point]"
Cc1cccc(COCC(Cc2ccccc2)N2CCN(C(=O)c3ccc(Cl)c(Cl)c3)CCC2=O)c1 (centres undefined),"35.5 µM [rising, single point]","31.6 µM [rising, single point]"
COc1ccc(CCNS(=O)(=O)c2ccc(S(=O)(=O)N3CCCC3)cc2)cc1OC,"12.6 µM [rising, partial curve, poor fit]","20 µM [rising, single point]"
Cc1ccc(C(=O)/C=C/N(C)C)o1,"0.112 µM [rising, full curve, poor fit]",
Cc1nn(C(=O)Cn2ccc([N+](=O)[O-])n2)c(C)c1Br,"5.62 µM [falling, single point]","5.62 µM [falling, single point]"
Cc1noc(/C=C/N(C)C)c1S(=O)(=O)N1CCc2ccccc21,,"8.91 µM [rising, partial curve]"
CC1SCCN1S(=O)(=O)c1ccc2ccccc2c1 (centres undefined),"14.1 µM [rising, single point]","11.2 µM [rising, partial curve]"
CCc1ccc(CNCc2ccc(F)cc2)cc1,,"35.5 µM [rising, single point]"
COc1ccc(N(C(=O)CCl)C(C(=O)NC2CCCCC2)c2cccnc2)cc1 (centres undefined),,"2.82 µM [rising, partial curve]"
O=c1c(C(c2ccccc2)c2c(O)sc3ccccc3c2=O)c(O)sc2ccccc12,"0.0891 µM [falling, full curve]","15.8 µM [falling, partial curve]"
CCCCS(=O)CC(COc1ccc(Cl)cc1)OC(=O)c1ccccc1 (centres undefined),,"22.4 µM [rising, single point]"
Cc1ccc(NC(=O)C2CC(=O)N(Cc3ccccc3)C2)cc1S(=O)(=O)N1CCCCCC1 (centres undefined),,"35.5 µM [rising, single point]"
CCOC(=O)N1CCN(CCC(=O)Nc2ccc(OC(F)(F)F)cc2)CC1,,"25.1 µM [rising, single point]"
COc1cc(CNc2nc(C)c([N+](=O)[O-])c(C)c2C#N)cc(OC)c1OC,"7.08 µM [rising, partial curve]","14.1 µM [rising, partial curve]"
CN(C)S(=O)(=O)c1ccc2c(c1)nc(CCC(=O)NCC1CCCCC1)n2C,"10 µM [rising, partial curve, poor fit]","11.2 µM [rising, single point]"
COc1ccc(CS(=O)(=O)/C(Cl)=C(/Cl)C(=O)Nc2ccc(OC)nc2)cc1,"3.16 µM [falling, full curve]","7.08 µM [falling, full curve]"
Fc1cccc(CSc2nc3ncccc3[nH]2)c1,"3.55 µM [rising, partial curve, poor fit]","1.41 µM [rising, full curve, poor fit]"
Cc1nc2c(OCc3ccccc3)cccn2c1CC#N,"2 µM [falling, partial curve, poor fit]",
O=C(CSc1nc2ccccc2c(=O)n1-c1ccccc1)NCc1ccco1,,"0.00891 µM [rising, full curve, poor fit]"
